No constants are given. Whether binding was seen depends on the method and setting. In cells and extracts the contact can be indirect. These calls come from enrichment with a bait or labelling near it, and not all partners need be listed.
Target: T1, SpoIIIAG (Bacillus subtilis (endogenous in sporulating B. subtilis cells)) (UniProt P49784)
T1 sequence: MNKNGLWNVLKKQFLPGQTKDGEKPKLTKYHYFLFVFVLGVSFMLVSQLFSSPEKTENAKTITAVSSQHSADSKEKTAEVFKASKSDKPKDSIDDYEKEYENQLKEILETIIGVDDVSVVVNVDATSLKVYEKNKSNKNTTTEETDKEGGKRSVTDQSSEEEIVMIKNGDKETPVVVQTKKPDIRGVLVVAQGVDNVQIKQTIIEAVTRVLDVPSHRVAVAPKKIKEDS
Assay: affinity purification with mass spectrometry; immunoprecipitate on anti-SpoIIIAG antibody resin from DDM-solubilized membranes, trypsinized, LC-MS (LCQ DECA ion trap)

B1: SpoIIIAB (protein, UniProt Q01368 1-171)
chain: MLKLLGAVFIVVATTWTGFEMAKIYTERPRQIRQLRAALQSLEAEIMYGHTPLHTASQQIAKQLAQPVSTLFSAFSDQLDKGSDSAKTAWEQSLKKVWDTLSLKKSEYEVLKQFGETLGIHDRISQQKHIKLALTHLEASEADAEQAQAKNEKMIKSLGFLAGLLLILLLM
binding: binds
